Source: doi:10.1101/2023.04.09.536178
No constants are given. Whether binding was seen depends on the method and setting. Binding seen in cells or lysates may run through a third protein. Some binding calls cover weakened binding; strength is not graded here. Where a sequence is shown, tags or fusion partners need not be part of it.

The chains behind the UniProt entries cited, without tags or fusion partners. Where a name states a change or a piece, a line headed by the entry shows the natural chain unless it says otherwise.
UniProt P15311: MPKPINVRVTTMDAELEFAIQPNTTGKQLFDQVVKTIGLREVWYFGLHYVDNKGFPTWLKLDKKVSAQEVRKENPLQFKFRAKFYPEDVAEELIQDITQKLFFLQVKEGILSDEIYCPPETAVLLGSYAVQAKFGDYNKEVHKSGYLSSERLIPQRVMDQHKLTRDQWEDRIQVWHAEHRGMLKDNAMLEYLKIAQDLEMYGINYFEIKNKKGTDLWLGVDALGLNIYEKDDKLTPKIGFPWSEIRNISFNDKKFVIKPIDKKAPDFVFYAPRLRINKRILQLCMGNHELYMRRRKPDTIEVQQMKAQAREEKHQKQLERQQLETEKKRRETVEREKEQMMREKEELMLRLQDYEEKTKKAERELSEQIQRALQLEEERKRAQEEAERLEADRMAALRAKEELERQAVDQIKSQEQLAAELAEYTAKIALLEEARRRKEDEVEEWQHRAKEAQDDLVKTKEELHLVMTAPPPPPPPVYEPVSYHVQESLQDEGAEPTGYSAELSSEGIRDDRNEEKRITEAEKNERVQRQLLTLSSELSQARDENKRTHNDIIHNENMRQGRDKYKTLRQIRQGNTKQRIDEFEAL

Target: T1, Myc-tagged Atg7 (Atg7-Myc) (UniProt Q9D906)
T1 sequence: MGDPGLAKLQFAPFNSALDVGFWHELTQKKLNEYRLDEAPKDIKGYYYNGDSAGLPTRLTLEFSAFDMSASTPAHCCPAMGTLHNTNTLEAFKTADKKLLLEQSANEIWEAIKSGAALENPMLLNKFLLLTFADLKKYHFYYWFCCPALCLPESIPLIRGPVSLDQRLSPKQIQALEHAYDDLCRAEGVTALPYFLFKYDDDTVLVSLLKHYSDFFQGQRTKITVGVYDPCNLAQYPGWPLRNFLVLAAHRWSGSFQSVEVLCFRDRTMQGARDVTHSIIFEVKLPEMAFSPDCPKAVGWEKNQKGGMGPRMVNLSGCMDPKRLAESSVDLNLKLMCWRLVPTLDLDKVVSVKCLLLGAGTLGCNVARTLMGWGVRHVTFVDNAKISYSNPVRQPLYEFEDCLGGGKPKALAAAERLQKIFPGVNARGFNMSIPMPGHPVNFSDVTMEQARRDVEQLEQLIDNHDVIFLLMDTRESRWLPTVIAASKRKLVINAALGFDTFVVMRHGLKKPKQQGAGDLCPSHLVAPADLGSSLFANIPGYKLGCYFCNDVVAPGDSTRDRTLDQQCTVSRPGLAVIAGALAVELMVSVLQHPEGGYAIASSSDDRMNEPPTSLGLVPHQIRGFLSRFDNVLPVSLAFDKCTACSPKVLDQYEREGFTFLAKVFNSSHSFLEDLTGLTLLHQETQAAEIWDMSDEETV
Test: co-IP; HEK293T co-transfected with Ezrin-HA and Atg7-Myc cDNA, lysed 36 h later (25 mM HEPES, 150 mM KCl, 1.5 mM MgCl2, 0.5% NP40, 10% glycerol, protease and phosphatase inhibitors); anti-c-Myc magnetic beads 6 h at 4 C; detection with anti-HA and anti-Myc on SimpleWestern Jess

HA-tagged WT Ezrin (Ezrin-HA) (from UniProt P15311 1-586)
binding: binds

HA-tagged phospho-dead Ezrin T567A (from UniProt P15311 1-586)
binding: binds
